Measurements reported in PubChem BioAssay AID1259425 (University of Nebraska Medical Center, 2018)

- Test: 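Seek colon cancer weak points whose silencing resembles KSR1 loss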 (primary screen)
- System: HCT116 human colon cancer cells
- Knock-down reagent: siRNA pool against human genes, 50 nM siRNA
- Measurement: 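After 50 nM siRNA pool, branched-DNA assay measures six marker transcripts per well, minus blank, normalised to the geometric mean of two housekeeping transcripts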
- Direction: BNIP3L mRNA: higher = more BNIP3L transcript after knockdown; NDRG1 mRNA: higher = more NDRG1 transcript after knockdown; BNIP3 mRNA: higher = more BNIP3 transcript after knockdown; ALDOC mRNA: higher = more ALDOC transcript after knockdown; ACSL5 mRNA: higher = more ACSL5 transcript after knockdown
The whole screen tested about 14,000 reagents; shown is a random part of them. Not stated in the record: the time to read-out.

gene symbol	BNIP3L mRNA, set 1	NDRG1 mRNA, set 1	BNIP3 mRNA, set 1	ALDOC mRNA, set 1	ACSL5 mRNA, set 1
SIRT6	0.0879	0.3	0.615	0.0195	0.167
IGLJ3	0.136	0.192	0.392	0.036	0.0519
H1-1	0.129	1.08	0.439	0.0516	0.526
MARK3	0.138	0.0935	0.169	0.0188	0.159
PCDHGA7	0.0984	0.296	0.241	0.0498	0.23
TNFRSF10A	0.125	0.419	0.421	0.0238	0.611
CCZ1	0.106	0.286	0.296	0.0289	0.278
RNF32	0.0804	0.106	0.244	0.015	0.114
TWSG1	0.189	0.31	0.423	0.0685	0.269
LLPH	0.176	0.315	0.221	0.0707	0.728
SLMAP	0.0601	0.112	0.254	0.0275	0.103
KLHL11	0.0834	0.328	0.313	0.029	0.229
DHX16	0.064	0.0957	0.186	0.0278	0.112
LUZP1	0.125	0.323	0.324	0.0261	0.235
APOBEC3A	0.244	0.375	0.406	0.0505	0.23
ADGRG2	0.232	0.407	0.271	0.0609	0.262
SERTAD2	0.0614	0.0978	0.224	0.0092	0.0793
PTPN2	0.0795	0.0957	0.222	0.0234	0.163
EDEM1	0.0868	0.0949	0.214	0.0199	0.165
PMS2P1	0.211	0.745	0.264	0.0466	0.26
PUS7L	0.274	0.0589	0.36	0.0494	0.0905
OR2L2	0.123	0.179	0.596	0.0788	0.208
PANX2	0.119	0.382	0.248	0.0156	0.193
DNAJC7	0.0895	0.116	0.254	0.0212	0.18
TGIF2LY	0.0474	0.0929	0.131	0.0136	0.154
SNUPN	0.0628	0.107	0.192	0.0212	0.183
PBDC1	0.0799	0.0917	0.341	0.0235	0.112
ST3GAL3	0.25	0.668	0.277	0.0318	0.237
MAGEA9	0.123	0.155	0.318	0.0225	0.194
MC3R	0.0812	0.343	0.199	0.0186	0.13
CWH43	0.124	0.169	0.238	0.0263	0.247
NRAS	0.116	0.0878	0.324	0.0144	0.112
COL9A2	0.106	0.242	0.267	0.0507	0.188
SF3A3	0.168	0.372	0.187	0.0356	0.153
SMG1	0.0872	0.221	0.33	0.0148	0.279
CNKSR1	0.0979	0.187	0.629	0.01	0.288
CDAN1	0.0806	0.241	0.238	0.0434	0.112
IPO5	0.053	0.119	0.259	0.0347	0.143
SIGLEC1	0.209	0.895	0.434	0.0712	0.523
CELF1	0.13	0.0681	0.3	0.00375	0.302
UBQLN2	0.064	0.178	0.373	0.0107	0.0774
SQSTM1	0.09	0.108	0.468	0.0315	0.217
APBA2	0.0494	0.157	0.188	0.0157	0.0879
UBE2L6	0.0856	0.262	0.278	0.0245	0.148
ANXA11	0.0878	0.082	0.328	0.00454	0.176
TFRC	0.257	0.694	0.533	0.0442	0.444
LTK	0.157	0.174	0.254	0.00684	0.216
MGMT	0.112	0.3	0.34	0.0316	0.231
RP2	0.102	0.0793	0.355	0.0128	0.219
TCF20	0.0817	0.0806	0.234	0.0197	0.325

Targets listed so far whose target name starts with P or p:
gene symbol	BNIP3L mRNA, set 1	NDRG1 mRNA, set 1	BNIP3 mRNA, set 1	ALDOC mRNA, set 1	ACSL5 mRNA, set 1
PCDHGA7	0.0984	0.296	0.241	0.0498	0.23
PTPN2	0.0795	0.0957	0.222	0.0234	0.163
PMS2P1	0.211	0.745	0.264	0.0466	0.26
PUS7L	0.274	0.0589	0.36	0.0494	0.0905
PANX2	0.119	0.382	0.248	0.0156	0.193
PBDC1	0.0799	0.0917	0.341	0.0235	0.112
